Common to all, as to conditions: K562; 2-18 h
In one experiment the target is STK38 (UniProt Q15208). Nature of the experiment: kinase-Nluc reporter destabilization hit call (1 = scored as downregulated) (binary); higher = compound decreases kinase abundance.
For a further experiment, the target named is SYK (UniProt P43405). The description is as above.
A further experiment has as its target TEC (UniProt P42680). The description is as above.
The target of the next experiment is TYK2 (UniProt P29597). The experiment is described as above.
Another experiment concerns the target ULK3 (UniProt Q6PHR2). Described as above.
The target in a further experiment is YES1 (UniProt P07947). The experiment is described as above.
A further experiment has as its target ZAK (UniProt Q9NYL2). The experiment is described as above.
The target of a further experiment is ZAP70 (UniProt P43403). The description is as above.
Another experiment deals with ABL1 (UniProt P00519). Nature of the experiment: number of time points (of 5) at which kinase-Nluc abundance scored as decreased, DMSO-normalised (count); higher = more persistent destabilization.
For the next experiment, the target named is AKT1 (UniProt P31749). The experiment is described as above.

Chains of the proteins cited; added tags and fusions are not shown. Lines headed by an entry give the natural chain unless they say otherwise; changes in a name come on top.
UniProt Q15208: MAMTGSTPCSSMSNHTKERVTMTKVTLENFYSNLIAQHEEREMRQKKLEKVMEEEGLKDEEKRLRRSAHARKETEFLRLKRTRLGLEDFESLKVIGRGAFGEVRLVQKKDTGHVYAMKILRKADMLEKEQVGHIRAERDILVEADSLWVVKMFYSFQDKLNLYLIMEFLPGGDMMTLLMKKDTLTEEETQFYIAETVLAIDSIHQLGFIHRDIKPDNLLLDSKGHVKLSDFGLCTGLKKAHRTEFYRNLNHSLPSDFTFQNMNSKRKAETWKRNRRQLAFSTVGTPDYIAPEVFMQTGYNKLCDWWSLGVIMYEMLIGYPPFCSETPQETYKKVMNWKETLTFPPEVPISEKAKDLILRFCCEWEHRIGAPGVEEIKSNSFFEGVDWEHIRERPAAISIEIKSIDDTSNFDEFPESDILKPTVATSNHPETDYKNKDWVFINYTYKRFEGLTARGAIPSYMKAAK
UniProt P42680: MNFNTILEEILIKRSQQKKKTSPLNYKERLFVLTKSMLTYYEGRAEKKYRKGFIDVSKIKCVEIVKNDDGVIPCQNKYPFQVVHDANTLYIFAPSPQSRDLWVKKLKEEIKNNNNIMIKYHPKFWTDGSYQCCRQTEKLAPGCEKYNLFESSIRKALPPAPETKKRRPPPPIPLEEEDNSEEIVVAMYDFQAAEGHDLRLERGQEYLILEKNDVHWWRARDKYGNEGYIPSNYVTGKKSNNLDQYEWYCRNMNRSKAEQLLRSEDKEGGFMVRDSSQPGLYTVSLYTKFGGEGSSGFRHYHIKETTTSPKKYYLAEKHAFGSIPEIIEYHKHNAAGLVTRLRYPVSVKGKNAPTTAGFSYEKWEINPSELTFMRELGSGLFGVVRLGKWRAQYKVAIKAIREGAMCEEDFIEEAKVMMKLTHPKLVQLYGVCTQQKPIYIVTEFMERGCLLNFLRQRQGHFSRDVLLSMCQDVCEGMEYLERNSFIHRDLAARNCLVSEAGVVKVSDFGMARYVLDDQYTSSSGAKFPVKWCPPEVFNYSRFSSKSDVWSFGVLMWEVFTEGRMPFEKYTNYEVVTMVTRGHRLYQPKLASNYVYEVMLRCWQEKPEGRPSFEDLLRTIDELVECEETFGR
UniProt P29597: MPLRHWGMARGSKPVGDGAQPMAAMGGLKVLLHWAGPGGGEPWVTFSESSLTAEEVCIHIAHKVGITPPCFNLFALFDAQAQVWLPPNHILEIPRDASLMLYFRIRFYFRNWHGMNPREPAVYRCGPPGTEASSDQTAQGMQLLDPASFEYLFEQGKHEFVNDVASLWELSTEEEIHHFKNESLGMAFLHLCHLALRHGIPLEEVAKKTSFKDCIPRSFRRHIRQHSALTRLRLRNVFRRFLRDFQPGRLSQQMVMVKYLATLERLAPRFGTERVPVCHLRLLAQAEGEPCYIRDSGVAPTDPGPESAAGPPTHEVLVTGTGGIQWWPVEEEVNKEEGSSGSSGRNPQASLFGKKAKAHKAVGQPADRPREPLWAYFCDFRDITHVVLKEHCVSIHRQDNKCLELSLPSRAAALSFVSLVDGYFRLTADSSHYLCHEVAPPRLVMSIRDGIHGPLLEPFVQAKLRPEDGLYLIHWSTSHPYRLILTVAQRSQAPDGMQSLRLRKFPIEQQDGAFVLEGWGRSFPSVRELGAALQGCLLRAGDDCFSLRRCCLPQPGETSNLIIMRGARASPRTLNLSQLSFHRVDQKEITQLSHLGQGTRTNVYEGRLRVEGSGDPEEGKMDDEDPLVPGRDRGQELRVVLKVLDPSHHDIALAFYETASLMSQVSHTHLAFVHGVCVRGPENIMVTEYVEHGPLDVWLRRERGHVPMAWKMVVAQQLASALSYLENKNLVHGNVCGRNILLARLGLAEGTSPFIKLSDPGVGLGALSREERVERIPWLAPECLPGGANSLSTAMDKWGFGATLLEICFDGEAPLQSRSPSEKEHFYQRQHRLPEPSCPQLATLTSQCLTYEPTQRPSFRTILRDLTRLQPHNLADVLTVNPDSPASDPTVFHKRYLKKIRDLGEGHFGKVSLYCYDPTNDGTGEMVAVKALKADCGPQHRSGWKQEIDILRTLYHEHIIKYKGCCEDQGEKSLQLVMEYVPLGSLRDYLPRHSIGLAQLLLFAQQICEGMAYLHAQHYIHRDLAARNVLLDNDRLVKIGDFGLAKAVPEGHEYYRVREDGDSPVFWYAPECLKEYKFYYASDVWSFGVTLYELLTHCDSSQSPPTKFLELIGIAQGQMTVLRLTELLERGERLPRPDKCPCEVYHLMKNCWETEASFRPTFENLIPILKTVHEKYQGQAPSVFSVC
UniProt Q6PHR2: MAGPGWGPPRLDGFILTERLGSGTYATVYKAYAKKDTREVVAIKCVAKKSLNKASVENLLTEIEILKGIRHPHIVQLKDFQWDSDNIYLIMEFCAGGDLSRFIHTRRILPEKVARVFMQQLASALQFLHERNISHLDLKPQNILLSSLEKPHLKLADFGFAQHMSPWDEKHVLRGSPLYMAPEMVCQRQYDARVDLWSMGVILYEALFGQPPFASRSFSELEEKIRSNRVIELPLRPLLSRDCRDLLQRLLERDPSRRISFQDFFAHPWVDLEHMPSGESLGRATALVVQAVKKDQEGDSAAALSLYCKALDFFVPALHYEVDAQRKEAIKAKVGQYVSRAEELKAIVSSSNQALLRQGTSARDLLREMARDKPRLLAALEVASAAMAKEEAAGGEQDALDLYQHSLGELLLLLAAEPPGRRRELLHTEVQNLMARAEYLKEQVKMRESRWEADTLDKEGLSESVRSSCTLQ
UniProt P07947, whole entry, looked up: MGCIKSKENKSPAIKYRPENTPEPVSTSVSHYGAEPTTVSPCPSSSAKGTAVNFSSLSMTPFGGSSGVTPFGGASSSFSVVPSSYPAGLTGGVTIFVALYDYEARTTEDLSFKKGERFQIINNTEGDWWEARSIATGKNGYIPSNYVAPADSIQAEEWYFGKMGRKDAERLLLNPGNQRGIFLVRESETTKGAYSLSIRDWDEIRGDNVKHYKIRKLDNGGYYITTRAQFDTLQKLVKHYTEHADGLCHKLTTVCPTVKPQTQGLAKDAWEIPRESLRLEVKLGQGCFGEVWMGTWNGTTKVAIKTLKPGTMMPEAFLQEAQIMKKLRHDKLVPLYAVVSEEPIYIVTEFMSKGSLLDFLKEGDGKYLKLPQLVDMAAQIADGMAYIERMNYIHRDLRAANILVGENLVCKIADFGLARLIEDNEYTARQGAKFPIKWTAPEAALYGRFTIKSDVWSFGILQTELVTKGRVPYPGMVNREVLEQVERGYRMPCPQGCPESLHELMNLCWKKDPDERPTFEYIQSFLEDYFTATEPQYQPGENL
UniProt P43403: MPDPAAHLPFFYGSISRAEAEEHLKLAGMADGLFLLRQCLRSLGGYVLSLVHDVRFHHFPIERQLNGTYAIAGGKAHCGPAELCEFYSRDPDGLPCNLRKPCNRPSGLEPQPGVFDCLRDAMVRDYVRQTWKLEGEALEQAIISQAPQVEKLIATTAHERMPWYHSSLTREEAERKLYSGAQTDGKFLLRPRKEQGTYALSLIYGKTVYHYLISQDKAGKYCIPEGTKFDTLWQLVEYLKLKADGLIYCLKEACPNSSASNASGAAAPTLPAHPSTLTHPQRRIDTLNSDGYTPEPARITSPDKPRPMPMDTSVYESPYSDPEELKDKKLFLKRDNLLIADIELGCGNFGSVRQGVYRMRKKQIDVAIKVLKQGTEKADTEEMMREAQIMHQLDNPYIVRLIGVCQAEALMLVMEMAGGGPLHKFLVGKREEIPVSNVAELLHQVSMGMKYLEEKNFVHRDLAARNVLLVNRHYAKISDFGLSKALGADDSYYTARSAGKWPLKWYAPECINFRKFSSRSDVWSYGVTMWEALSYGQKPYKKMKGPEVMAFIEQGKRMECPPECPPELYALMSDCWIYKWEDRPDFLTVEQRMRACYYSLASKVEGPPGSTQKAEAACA
UniProt P00519, whole entry: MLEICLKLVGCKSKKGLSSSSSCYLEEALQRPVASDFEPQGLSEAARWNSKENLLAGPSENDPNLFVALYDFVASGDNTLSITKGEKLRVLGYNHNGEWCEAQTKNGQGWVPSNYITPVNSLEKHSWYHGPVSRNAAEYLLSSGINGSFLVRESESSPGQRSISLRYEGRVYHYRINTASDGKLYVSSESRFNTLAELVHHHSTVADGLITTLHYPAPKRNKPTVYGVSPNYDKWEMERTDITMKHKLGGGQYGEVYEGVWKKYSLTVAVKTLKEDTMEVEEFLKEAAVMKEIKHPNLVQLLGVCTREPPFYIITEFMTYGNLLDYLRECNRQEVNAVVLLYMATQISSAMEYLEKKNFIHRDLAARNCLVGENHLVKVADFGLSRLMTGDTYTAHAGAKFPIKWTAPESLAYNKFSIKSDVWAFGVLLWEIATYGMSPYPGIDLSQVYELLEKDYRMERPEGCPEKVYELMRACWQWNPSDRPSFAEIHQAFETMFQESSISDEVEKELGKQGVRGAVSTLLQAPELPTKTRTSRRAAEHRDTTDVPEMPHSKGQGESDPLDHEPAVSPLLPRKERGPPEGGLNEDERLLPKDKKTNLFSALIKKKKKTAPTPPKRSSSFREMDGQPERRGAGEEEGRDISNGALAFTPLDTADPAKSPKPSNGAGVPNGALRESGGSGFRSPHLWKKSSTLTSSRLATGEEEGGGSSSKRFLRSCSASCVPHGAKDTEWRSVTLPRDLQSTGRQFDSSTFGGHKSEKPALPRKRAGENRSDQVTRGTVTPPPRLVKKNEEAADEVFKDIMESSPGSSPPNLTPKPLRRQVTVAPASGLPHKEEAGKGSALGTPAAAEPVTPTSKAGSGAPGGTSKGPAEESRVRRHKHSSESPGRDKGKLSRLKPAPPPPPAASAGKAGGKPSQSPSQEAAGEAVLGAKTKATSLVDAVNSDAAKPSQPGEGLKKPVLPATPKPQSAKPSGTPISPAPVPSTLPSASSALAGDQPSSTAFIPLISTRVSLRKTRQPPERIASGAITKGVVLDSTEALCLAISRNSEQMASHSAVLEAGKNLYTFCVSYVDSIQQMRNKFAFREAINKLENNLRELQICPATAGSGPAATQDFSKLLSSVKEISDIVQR
UniProt P31749: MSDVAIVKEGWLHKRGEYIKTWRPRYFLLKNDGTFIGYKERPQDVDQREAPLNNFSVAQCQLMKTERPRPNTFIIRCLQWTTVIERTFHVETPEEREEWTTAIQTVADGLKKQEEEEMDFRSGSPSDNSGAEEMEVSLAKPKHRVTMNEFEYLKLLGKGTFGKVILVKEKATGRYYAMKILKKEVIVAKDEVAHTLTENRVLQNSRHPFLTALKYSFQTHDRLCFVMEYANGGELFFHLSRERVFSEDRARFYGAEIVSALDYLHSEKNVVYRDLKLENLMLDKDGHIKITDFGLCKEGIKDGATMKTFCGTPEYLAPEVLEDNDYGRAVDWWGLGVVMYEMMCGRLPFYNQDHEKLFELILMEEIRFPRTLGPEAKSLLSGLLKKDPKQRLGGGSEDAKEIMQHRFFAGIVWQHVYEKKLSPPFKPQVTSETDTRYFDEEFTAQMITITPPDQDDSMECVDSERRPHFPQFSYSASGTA

Structures are written as SMILES. Some of the results follow. The calls rarely recur for the same compound in another form.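 Kinases, fused to nanoluciferase, were expressed in K562 cells; luminescence was measured every 4 h from 2 to 18 h as percent of control (DMSO = 100%, positive control = 0%). A time point is decreased if signal falls significantly (2 sigma). Hits were called by the authors by a rule that is not shown; the count of time points alone does not decide it.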

As to `CN1C(=O)C(Cc2c[nH]c3ccccc23)NC1=S` (stereo not given) [Necrostatin-1] (10 µM), the “kinase-Nluc reporter destabilization hit call” value in the experiment with STK38, in the experiment with SYK, with TEC, with TYK2, with ULK3 and in the experiment with YES1 was inactive: 0 each time. In addition, the “kinase-Nluc reporter destabilization hit call” value with ZAK and in the experiment with ZAP70 was inactive: 0 in each case. For the same molecule, the “number of time points” value in the experiment with ABL1 and with AKT1 was 0 throughout.
Turning to `Fc1ccc(-c2nc(-c3ccccc3F)[nH]c2-c2ccncc2)cc1` (2.5 µM), the “kinase-Nluc reporter destabilization hit call” value with STK38, with SYK, with TEC, with TYK2, with ULK3 and in the experiment with YES1 was inactive: 0 throughout. For the same molecule, the “kinase-Nluc reporter destabilization hit call” value with ZAK and with ZAP70 was inactive: 0 each time. Besides, the “number of time points” value in the experiment with ABL1 and with AKT1 was 0 throughout.
As to `CN(CCNc1ccc2ncc(-c3ccc(C(N)=O)cc3)n2n1)C(=O)OC(C)(C)C` (10 µM), the “kinase-Nluc reporter destabilization hit call” value with STK38, in the experiment with SYK, in the experiment with TEC, with TYK2, with ULK3 and in the experiment with YES1 was inactive: 0 each time. The “kinase-Nluc reporter destabilization hit call” value in the experiment with ZAK and with ZAP70 was inactive: 0 each time. Besides, the “number of time points” value in the experiment with ABL1 and with AKT1 was 0 in each case.
Take `CC(C)(C)c1ccc(S(=O)(=O)Nc2ccc(-n3ccnc3)cc2)cc1` (10 µM): the “kinase-Nluc reporter destabilization hit call” value with STK38, with SYK, with TEC, in the experiment with TYK2, in the experiment with ULK3 and with YES1 was inactive: 0 each time. Moreover, the “kinase-Nluc reporter destabilization hit call” value with ZAK and with ZAP70 was inactive: 0 in each case. Also, the “number of time points” value with ABL1 and with AKT1 was 0 each time.
Regarding `CC1CCc2nc(N)c(C#N)c(-c3cccnc3)c2C1` (stereo not given) (10 µM), the “kinase-Nluc reporter destabilization hit call” value in the experiment with STK38, with SYK, in the experiment with TEC, in the experiment with TYK2, with ULK3 and with YES1 was inactive: 0 throughout. Moreover, the “kinase-Nluc reporter destabilization hit call” value in the experiment with ZAK and with ZAP70 was inactive: 0 each time. The “number of time points” value with ABL1 and with AKT1 was 0 throughout.
Consider `Cc1ccc(Nc2cc(-c3cccc(N4C(=O)c5ccccc5C4=O)c3)ncn2)cc1NS(C)(=O)=O` (10 µM), for which the “kinase-Nluc reporter destabilization hit call” value with STK38, with SYK, in the experiment with TEC, in the experiment with TYK2, with ULK3 and in the experiment with YES1 was inactive: 0 in each case. The “kinase-Nluc reporter destabilization hit call” value with ZAK and with ZAP70 was inactive: 0 in each case. Besides, the “number of time points” value in the experiment with ABL1 and with AKT1 was 0 throughout.
In the case of `Cc1ccc(Oc2nc3cc(-c4ccc5c(ccn5C)c4)c(Cl)cc3[nH]2)cc1C(=O)O` (10 µM), the “kinase-Nluc reporter destabilization hit call” value with STK38, with SYK, with TEC, with TYK2, with ULK3 and in the experiment with YES1 was inactive: 0 in each case. The “kinase-Nluc reporter destabilization hit call” value with ZAK and with ZAP70 was inactive: 0 each time. The “number of time points” value with ABL1 and with AKT1 was 0 each time.
Regarding `CC(=NNC(=O)c1ccc(C)c(Br)c1)c1ccc(O)cc1O` [mTOR inhibitor-1] (2.5 µM), the “kinase-Nluc reporter destabilization hit call” value with STK38, with SYK, in the experiment with TEC, in the experiment with TYK2, in the experiment with ULK3 and in the experiment with YES1 was inactive: 0 throughout. The “kinase-Nluc reporter destabilization hit call” value in the experiment with ZAK and with ZAP70 was inactive: 0 in each case. The “number of time points” value with ABL1 and with AKT1 was 0 throughout.
On to `COc1ccc2c(c1O)OC(C)(C)c1c-2ccc2c1C(=O)N(c1ccc(C(=O)c3ccccc3)cc1)C2=O` [Ampkinone] (10 µM), for which the “kinase-Nluc reporter destabilization hit call” value in the experiment with STK38, with SYK, with TEC, in the experiment with TYK2, with ULK3 and in the experiment with YES1 was inactive: 0 throughout. For the same molecule, the “kinase-Nluc reporter destabilization hit call” value with ZAK and with ZAP70 was inactive: 0 in each case. Further, the “number of time points” value with ABL1 and in the experiment with AKT1 was 0 in each case.
Take `COc1ccc([C@H]2c3[nH]c4ccc(Cl)cc4c3CCN2C(=O)Oc2ccc(Cl)cc2)cc1` (2.5 µM): the “kinase-Nluc reporter destabilization hit call” value with STK38, with SYK, in the experiment with TEC, in the experiment with TYK2, in the experiment with ULK3 and in the experiment with YES1 was inactive: 0 in each case. The “kinase-Nluc reporter destabilization hit call” value with ZAK and with ZAP70 was inactive: 0 in each case. In addition, the “number of time points” value in the experiment with ABL1 and with AKT1 was 0 throughout.
With `CNc1nc(Nc2cnn(C3CCN(C4COC4)CC3F)c2Cl)ncc1C(F)(F)F` (stereo not given) (10 µM), the “kinase-Nluc reporter destabilization hit call” value with STK38, with SYK, with TEC, with TYK2, with ULK3 and with YES1 was inactive: 0 in each case. The “kinase-Nluc reporter destabilization hit call” value in the experiment with ZAK and with ZAP70 was inactive: 0 each time. Besides, the “number of time points” value in the experiment with ABL1 and in the experiment with AKT1 was 0 throughout.
For the molecule `Cc1ccc(NC(=S)NNc2c([N+](=O)[O-])cc(C(F)(F)F)cc2[N+](=O)[O-])cc1Cl` (10 µM), the “kinase-Nluc reporter destabilization hit call” value in the experiment with STK38, in the experiment with SYK, with TEC, with TYK2, in the experiment with ULK3 and with YES1 was inactive: 0 each time. Besides, the “kinase-Nluc reporter destabilization hit call” value with ZAK and with ZAP70 was inactive: 0 in each case. Moreover, the “number of time points” value with ABL1 and with AKT1 was 0 throughout.
As for `COc1ncc(-c2nc(N3CCOCC3)nc3c(CN4CCC(C(C)(C)O)CC4)cc(F)cc23)cc1NS(C)(=O)=O` [Linperlisib] (10 µM), the “kinase-Nluc reporter destabilization hit call” value in the experiment with STK38, with SYK, in the experiment with TEC, in the experiment with TYK2, in the experiment with ULK3 and with YES1 was inactive: 0 throughout. For the same molecule, the “kinase-Nluc reporter destabilization hit call” value with ZAK and with ZAP70 was inactive: 0 each time. The “number of time points” value with ABL1 and in the experiment with AKT1 was 0 in each case.
Turning to `O=C1c2ccc(Nc3ccc(F)cc3F)cc2CCc2ccc(OC[C@H](O)CO)cc21` [Skepinone-L] (2.5 µM), the “kinase-Nluc reporter destabilization hit call” value in the experiment with STK38, with SYK, with TEC, with TYK2, with ULK3 and in the experiment with YES1 was inactive: 0 throughout. For the same molecule, the “kinase-Nluc reporter destabilization hit call” value with ZAK and with ZAP70 was inactive: 0 throughout. In addition, the “number of time points” value with ABL1 and with AKT1 was 0 each time.
Consider `Cn1c(=O)c(F)c(Nc2ccc(I)cc2F)c2c(=O)n(C[C@@H](O)CO)cnc21` (10 µM), for which the “kinase-Nluc reporter destabilization hit call” value with STK38, in the experiment with SYK, in the experiment with TEC, with TYK2, with ULK3 and with YES1 was inactive: 0 in each case. Also, the “kinase-Nluc reporter destabilization hit call” value with ZAK and in the experiment with ZAP70 was inactive: 0 throughout. Besides, the results for the “number of time points” value with ABL1 and with AKT1 were 1 and 0, respectively.

The values above are taken from the supplement of paper PMC12823440, “Inhibitors supercharge kinase turnover through native proteolytic circuits” (Nature, 2025).
